Measured values reported in publication PMC8463077.
These are yes or no findings as the source states them, for the method shown. In cells and extracts the contact can be indirect. Binding calls can cover weak binding; strength is not graded here. For part of these data: Sequences can lack the tags named with a protein.

Protein sequences, listed by entry. Tags and fused reporters are not part of them. Lines headed by an entry give the natural chain unless they say otherwise; changes in a name come on top.
UniProt Q9GZV5: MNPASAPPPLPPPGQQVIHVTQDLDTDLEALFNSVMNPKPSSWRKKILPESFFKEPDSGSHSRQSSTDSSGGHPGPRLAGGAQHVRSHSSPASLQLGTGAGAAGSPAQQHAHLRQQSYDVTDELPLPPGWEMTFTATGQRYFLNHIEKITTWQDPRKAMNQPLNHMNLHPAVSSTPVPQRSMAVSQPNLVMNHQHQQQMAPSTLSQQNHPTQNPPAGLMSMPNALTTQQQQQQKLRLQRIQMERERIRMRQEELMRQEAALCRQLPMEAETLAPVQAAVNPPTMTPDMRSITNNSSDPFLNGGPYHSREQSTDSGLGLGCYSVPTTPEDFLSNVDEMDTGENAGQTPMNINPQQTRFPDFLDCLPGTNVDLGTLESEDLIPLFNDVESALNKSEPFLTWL
UniProt P46937: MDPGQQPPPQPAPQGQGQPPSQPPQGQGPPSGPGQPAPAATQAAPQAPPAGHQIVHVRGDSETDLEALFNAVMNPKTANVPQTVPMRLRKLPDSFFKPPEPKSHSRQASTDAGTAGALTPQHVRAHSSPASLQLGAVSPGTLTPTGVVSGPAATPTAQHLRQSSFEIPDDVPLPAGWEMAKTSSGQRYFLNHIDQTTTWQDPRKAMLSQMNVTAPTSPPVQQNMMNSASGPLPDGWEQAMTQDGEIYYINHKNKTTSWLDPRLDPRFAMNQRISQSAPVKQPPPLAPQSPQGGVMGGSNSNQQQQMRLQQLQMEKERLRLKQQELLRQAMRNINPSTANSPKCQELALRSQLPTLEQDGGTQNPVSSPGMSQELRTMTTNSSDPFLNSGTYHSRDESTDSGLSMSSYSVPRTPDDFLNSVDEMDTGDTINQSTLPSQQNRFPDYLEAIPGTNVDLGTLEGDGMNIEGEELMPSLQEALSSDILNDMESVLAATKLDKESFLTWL
UniProt P40763: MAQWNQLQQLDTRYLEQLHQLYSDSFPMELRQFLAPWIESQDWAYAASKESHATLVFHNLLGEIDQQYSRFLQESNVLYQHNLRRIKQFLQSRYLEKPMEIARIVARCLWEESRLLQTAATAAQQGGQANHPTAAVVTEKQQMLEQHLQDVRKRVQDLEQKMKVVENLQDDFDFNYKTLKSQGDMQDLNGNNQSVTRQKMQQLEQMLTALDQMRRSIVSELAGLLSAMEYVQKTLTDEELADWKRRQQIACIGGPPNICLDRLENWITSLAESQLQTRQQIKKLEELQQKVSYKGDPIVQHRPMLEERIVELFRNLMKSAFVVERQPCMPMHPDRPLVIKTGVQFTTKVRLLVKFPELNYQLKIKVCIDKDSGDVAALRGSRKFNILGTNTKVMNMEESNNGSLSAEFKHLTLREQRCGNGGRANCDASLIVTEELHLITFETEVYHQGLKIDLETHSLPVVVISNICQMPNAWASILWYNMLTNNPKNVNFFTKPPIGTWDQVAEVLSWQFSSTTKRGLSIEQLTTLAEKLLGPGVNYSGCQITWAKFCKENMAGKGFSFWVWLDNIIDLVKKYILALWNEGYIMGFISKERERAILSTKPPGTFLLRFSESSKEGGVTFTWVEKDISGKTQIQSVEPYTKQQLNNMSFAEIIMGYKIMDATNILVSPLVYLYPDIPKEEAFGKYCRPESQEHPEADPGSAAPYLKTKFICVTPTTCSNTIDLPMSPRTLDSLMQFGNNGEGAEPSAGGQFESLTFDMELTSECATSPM

Columns and labels:
Assay in all cases: co-IP; HA-tagged YAP or TAZ derivatives co-expressed with FLAG-tagged STAT3 or JUNB in 293T cells for 2 days; IP with anti-HA antibody or control IgG, Dynabead protein G; co-IP buffer 50 mM Tris pH 7.5, 100 mM NaCl, 1.5 mM EGTA, 0.1% Triton X-100; 4°C overnight
[1] = target: HA-tagged TAZ derivative lacking the TEAD domain (UniProt Q9GZV5)
[2] = target: HA-tagged YAP derivative lacking the TEAD domain (UniProt P46937)
[3] = target: HA-tagged TAZ derivative lacking the WW domain (UniProt Q9GZV5)
[4] = target: HA-tagged YAP derivative lacking the WW2 domain (UniProt P46937)

Measured: binding

FLAG-tagged STAT3 (from UniProt P40763 1-770)
binds: [1] | [2] | [3] | [4]

B1: FLAG-tagged JUNB (protein, UniProt P17275 1-347)
chain: MCTKMEQPFYHDDSYTATGYGRAPGGLSLHDYKLLKPSLAVNLADPYRSLKAPGARGPGPEGGGGGSYFSGQGSDTGASLKLASSELERLIVPNSNGVITTTPTPPGQYFYPRGGGSGGGAGGAGGGVTEEQEGFADGFVKALDDLHKMNHVTPPNVSLGATGGPPAGPGGVYAGPEPPPVYTNLSSYSPASASSGGAGAAVGTGSSYPTTTISYLPHAPPFAGGHPAQLGLGRGASTFKEEPQTVPEARSRDATPPVSPINMEDQERIKVERKRLRNRLAATKCRKRKLERIARLEDKVKTLKAENAGLSSTAGLLREQVAQLKQKVMTHVSNGCQLLLGVKGHAF
binds: [3] | [4]
